Literature values, collected in PMC3004914, “Classification of Drugs Based on Properties of Sodium Channel Inhibition: A Comparative Automated Patch-Clamp Study” (PLoS ONE, 2010).
Like-named read-outs stand apart in the source and are kept apart here.

Details: human plasma, cited from earlier work

CCN(CC)CC(=O)Nc1c(C)cccc1C [LID, Lidocaine]
plasma conc. (as printed in each cell): 3.5 [44] µg/ml | plasma conc. (as printed in the µg/ml cell): 12.925 µM
